Results are given in words; binding and its absence hold for the method and conditions named. In cells and extracts the contact can be indirect. Some binding calls cover weakened binding; strength is not graded here.
Molecular target: Flag-tagged eIF3d (UniProt O15371)
Experiment: co-IP

Amino acid sequences for entries named in this document (tags omitted).
UniProt O15371: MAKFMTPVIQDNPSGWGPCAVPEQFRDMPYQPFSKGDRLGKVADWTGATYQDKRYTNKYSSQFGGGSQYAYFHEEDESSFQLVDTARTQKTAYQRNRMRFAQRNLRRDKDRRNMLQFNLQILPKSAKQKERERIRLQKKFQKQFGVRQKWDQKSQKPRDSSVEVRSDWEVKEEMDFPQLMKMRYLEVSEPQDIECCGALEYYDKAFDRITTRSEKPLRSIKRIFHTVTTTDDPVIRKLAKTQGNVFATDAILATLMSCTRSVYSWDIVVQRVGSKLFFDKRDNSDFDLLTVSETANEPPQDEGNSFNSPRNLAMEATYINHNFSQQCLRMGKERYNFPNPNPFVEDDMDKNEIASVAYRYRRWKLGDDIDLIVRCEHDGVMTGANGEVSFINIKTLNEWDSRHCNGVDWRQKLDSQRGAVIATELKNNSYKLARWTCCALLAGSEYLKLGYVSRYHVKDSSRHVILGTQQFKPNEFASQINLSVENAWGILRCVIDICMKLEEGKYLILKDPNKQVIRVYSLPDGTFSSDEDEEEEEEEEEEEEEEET
UniProt P55884: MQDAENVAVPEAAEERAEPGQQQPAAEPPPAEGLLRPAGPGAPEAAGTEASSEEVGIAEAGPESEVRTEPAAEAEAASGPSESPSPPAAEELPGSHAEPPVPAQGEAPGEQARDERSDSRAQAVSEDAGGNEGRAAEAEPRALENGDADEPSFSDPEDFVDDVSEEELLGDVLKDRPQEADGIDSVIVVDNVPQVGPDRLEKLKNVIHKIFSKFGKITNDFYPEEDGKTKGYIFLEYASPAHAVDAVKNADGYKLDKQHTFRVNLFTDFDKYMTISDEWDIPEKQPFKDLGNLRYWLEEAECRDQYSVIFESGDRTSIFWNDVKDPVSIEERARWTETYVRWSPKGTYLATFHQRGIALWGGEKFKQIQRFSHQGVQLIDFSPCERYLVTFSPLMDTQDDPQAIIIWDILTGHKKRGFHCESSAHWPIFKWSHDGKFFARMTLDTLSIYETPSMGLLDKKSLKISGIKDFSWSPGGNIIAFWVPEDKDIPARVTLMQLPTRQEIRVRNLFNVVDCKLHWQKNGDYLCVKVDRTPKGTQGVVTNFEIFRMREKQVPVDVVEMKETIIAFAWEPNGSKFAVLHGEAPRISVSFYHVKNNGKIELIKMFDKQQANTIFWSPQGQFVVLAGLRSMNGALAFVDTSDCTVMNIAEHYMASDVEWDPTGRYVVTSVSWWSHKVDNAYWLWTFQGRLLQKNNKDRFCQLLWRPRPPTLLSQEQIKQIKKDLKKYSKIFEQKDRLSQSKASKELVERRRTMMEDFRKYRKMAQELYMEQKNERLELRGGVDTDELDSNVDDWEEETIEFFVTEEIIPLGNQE
UniProt Q04637: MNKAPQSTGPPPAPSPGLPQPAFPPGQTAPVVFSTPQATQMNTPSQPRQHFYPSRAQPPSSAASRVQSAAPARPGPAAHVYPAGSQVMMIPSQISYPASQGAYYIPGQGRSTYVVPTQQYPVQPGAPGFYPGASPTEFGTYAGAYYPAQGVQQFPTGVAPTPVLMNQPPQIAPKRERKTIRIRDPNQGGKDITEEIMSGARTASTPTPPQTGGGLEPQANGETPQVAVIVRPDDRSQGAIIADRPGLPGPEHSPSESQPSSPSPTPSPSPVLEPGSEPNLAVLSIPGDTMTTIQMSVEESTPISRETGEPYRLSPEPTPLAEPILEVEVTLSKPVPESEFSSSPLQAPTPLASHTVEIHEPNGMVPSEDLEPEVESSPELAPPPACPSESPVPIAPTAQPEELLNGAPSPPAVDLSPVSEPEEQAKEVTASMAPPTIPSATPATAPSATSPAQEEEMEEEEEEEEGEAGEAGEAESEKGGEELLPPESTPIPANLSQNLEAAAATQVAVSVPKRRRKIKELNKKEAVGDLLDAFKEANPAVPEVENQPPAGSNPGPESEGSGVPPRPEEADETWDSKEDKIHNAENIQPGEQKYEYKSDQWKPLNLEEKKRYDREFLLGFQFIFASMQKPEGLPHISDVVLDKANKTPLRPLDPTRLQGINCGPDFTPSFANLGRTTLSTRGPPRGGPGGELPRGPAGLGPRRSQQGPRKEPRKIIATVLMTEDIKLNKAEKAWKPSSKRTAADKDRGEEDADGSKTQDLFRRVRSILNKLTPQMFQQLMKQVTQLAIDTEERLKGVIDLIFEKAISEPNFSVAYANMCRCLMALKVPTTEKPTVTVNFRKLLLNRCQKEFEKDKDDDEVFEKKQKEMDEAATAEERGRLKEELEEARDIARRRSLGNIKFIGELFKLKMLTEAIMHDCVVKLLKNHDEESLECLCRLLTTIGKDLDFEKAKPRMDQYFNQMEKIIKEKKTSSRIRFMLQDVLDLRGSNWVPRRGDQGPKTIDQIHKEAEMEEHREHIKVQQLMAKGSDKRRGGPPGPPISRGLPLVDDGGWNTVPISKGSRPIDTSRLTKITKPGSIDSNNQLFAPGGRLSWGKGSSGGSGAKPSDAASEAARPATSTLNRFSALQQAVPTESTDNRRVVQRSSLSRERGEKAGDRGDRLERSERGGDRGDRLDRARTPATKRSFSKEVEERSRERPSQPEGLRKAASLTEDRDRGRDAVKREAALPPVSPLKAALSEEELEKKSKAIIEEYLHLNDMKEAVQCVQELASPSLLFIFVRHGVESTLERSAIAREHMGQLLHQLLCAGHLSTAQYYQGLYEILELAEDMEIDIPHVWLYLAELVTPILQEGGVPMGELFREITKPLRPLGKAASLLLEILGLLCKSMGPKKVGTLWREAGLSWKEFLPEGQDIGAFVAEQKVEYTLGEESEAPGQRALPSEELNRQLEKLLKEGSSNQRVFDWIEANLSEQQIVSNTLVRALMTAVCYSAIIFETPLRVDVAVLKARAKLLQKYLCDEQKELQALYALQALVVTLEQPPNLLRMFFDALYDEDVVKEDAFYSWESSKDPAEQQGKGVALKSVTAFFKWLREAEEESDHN

## eIF3b (from UniProt P55884 1-814)
  binding: binds

## eIF4G1 (from UniProt Q04637 1-1599)
  binding: binds

Reference: paper doi:10.1101/2023.12.15.571284
